Data as given in ChEMBL document CHEMBL4316593 (Eur J Med Chem, 2019).
Further values from the same series stand in other lists.

Columns and labels:
Assay type in all cases: cell-based
Settings in all cases: U-87MG ATCC
[1] = Inhibition of RTK/PI3K/AKT/mTOR signaling in human U87 cells assessed as down regulation of LIG1 gene expression at cytotoxic IC50 measured after 48 hrs relative to control
[2] = Inhibition of RTK/PI3K/AKT/mTOR signaling in human U87 cells assessed as up regulation of B-cell CLL/lymphoma 3 gene expression at cytotoxic IC50 measured after 48 hrs relative to control
[3] = Inhibition of RTK/PI3K/AKT/mTOR signaling in human U87 cells assessed as down regulation of CHMP4C gene expression at cytotoxic IC50 measured after 48 hrs relative to control
[4] = Inhibition of RTK/PI3K/AKT/mTOR signaling in human U87 cells assessed as down regulation of PARP2 gene expression at cytotoxic IC50 measured after 48 hrs relative to control
[5] = Inhibition of RTK/PI3K/AKT/mTOR signaling in human U87 cells assessed as up regulation of ATP synthase F0 subunit 6 gene expression at cytotoxic IC50 measured after 48 hrs relative to control
[6] = Inhibition of RTK/PI3K/AKT/mTOR signaling in human U87 cells assessed as up regulation of FtsJ RNA methyltransferase homolog 1 (E. coli) gene expression at cytotoxic IC50 measured after 48 hrs relative to control
[7] = Inhibition of RTK/PI3K/AKT/mTOR signaling in human U87 cells assessed as up regulation of ETS variant 6 gene expression at cytotoxic IC50 measured after 48 hrs relative to control
[8] = Inhibition of RTK/PI3K/AKT/mTOR signaling in human U87 cells assessed as down regulation of STAM gene expression at cytotoxic IC50 measured after 48 hrs relative to control
[9] = Inhibition of RTK/PI3K/AKT/mTOR signaling in human U87 cells assessed as down regulation of MCM9 gene expression at cytotoxic IC50 measured after 48 hrs relative to control
[10] = Inhibition of RTK/PI3K/AKT/mTOR signaling in human U87 cells assessed as up regulation of Cbp/p300 interacting transactivator with Glu/Asp rich carboxy-terminal domain 2 gene expression at cytotoxic IC50 measured after 48 hrs relative to control
[11] = Inhibition of RTK/PI3K/AKT/mTOR signaling in human U87 cells assessed as up regulation of ring finger protein 130 gene expression at cytotoxic IC50 measured after 48 hrs relative to control
[12] = Inhibition of RTK/PI3K/AKT/mTOR signaling in human U87 cells assessed as up regulation of protein kinase, X-linked gene expression at cytotoxic IC50 measured after 48 hrs relative to control
[13] = Inhibition of RTK/PI3K/AKT/mTOR signaling in human U87 cells assessed as down regulation of PAG1 gene expression at cytotoxic IC50 measured after 48 hrs relative to control
[14] = Inhibition of RTK/PI3K/AKT/mTOR signaling in human U87 cells assessed as down regulation of CAP1 gene expression at cytotoxic IC50 measured after 48 hrs relative to control
[15] = Inhibition of RTK/PI3K/AKT/mTOR signaling in human U87 cells assessed as down regulation of DDIT3 gene expression at cytotoxic IC50 measured after 48 hrs relative to control
[16] = Inhibition of RTK/PI3K/AKT/mTOR signaling in human U87 cells assessed as down regulation of WDR25 gene expression at cytotoxic IC50 measured after 48 hrs relative to control
[17] = Inhibition of RTK/PI3K/AKT/mTOR signaling in human U87 cells assessed as up regulation of exocyst complex component 4 gene expression at cytotoxic IC50 measured after 48 hrs relative to control
[18] = Inhibition of RTK/PI3K/AKT/mTOR signaling in human U87 cells assessed as down regulation of KLHL28 gene expression at cytotoxic IC50 measured after 48 hrs relative to control
[19] = Inhibition of RTK/PI3K/AKT/mTOR signaling in human U87 cells assessed as up regulation of EPS8 like 1 gene expression at cytotoxic IC50 measured after 48 hrs relative to control
[20] = Inhibition of RTK/PI3K/AKT/mTOR signaling in human U87 cells assessed as down regulation of NKX3-1 gene expression at cytotoxic IC50 measured after 48 hrs relative to control
[21] = Inhibition of RTK/PI3K/AKT/mTOR signaling in human U87 cells assessed as up regulation of mal, T-cell differentiation protein 2 (gene/pseudogene) gene expression at cytotoxic IC50 measured after 48 hrs relative to control
[22] = Inhibition of RTK/PI3K/AKT/mTOR signaling in human U87 cells assessed as up regulation of SRC kinase signaling inhibitor 1 gene expression at cytotoxic IC50 measured after 48 hrs relative to control
[23] = Inhibition of RTK/PI3K/AKT/mTOR signaling in human U87 cells assessed as up regulation of APP gene expression at cytotoxic IC50 measured after 48 hrs relative to control
[24] = Inhibition of RTK/PI3K/AKT/mTOR signaling in human U87 cells assessed as up regulation of FDXR gene expression at cytotoxic IC50 measured after 48 hrs relative to control
[25] = Inhibition of RTK/PI3K/AKT/mTOR signaling in human U87 cells assessed as down regulation of PNPLA8 gene expression at cytotoxic IC50 measured after 48 hrs relative to control
[26] = Inhibition of RTK/PI3K/AKT/mTOR signaling in human U87 cells assessed as down regulation of RAB22A gene expression at cytotoxic IC50 measured after 48 hrs relative to control
[27] = Inhibition of RTK/PI3K/AKT/mTOR signaling in human U87 cells assessed as down regulation of ST14 gene expression at cytotoxic IC50 measured after 48 hrs relative to control
[28] = Inhibition of RTK/PI3K/AKT/mTOR signaling in human U87 cells assessed as down regulation of CNEP1R1 gene expression at cytotoxic IC50 measured after 48 hrs relative to control
[29] = Inhibition of RTK/PI3K/AKT/mTOR signaling in human U87 cells assessed as up regulation of FBN3 gene expression at cytotoxic IC50 measured after 48 hrs relative to control
[30] = Inhibition of RTK/PI3K/AKT/mTOR signaling in human U87 cells assessed as down regulation of DCAF13 gene expression at cytotoxic IC50 measured after 48 hrs relative to control
[31] = Inhibition of RTK/PI3K/AKT/mTOR signaling in human U87 cells assessed as down regulation of IKBKAP gene expression at cytotoxic IC50 measured after 48 hrs relative to control
[32] = Inhibition of RTK/PI3K/AKT/mTOR signaling in human U87 cells assessed as up regulation of EMC1 gene expression at cytotoxic IC50 measured after 48 hrs relative to control

## CC(=O)C(=NNc1ccccc1C#N)C(C)=O
[1]
  log2FC: -0.698
[2]
  log2FC: 0.984
[3]
  log2FC: -0.977
[4]
  log2FC: -0.681
[5]
  log2FC: 0.927
[6]
  log2FC: 0.663
[7]
  log2FC: 1.02
[8]
  log2FC: -1.11
[9]
  log2FC: -0.96
[10]
  log2FC: 0.654
[11]
  log2FC: 1.02
[12]
  log2FC: 1.04
[13]
  log2FC: -1.84
[14]
  log2FC: -0.572
[15]
  log2FC: -0.814
[16]
  log2FC: -1.26
[17]
  log2FC: 0.71
[18]
  log2FC: -1.07
[19]
  log2FC: 1.29
[20]
  log2FC: -1.4
[21]
  log2FC: 1.01
[22]
  log2FC: 1.3
[23]
  log2FC: 0.394
[24]
  log2FC: 0.643
[25]
  log2FC: -0.884
[26]
  log2FC: -0.789
[27]
  log2FC: -0.535
[28]
  log2FC: -0.833
[29]
  log2FC: 2.13
[30]
  log2FC: -0.441
[31]
  log2FC: -0.502
[32]
  log2FC: 0.556
